Test results: PMC4884081
No constants are given. Whether binding was seen depends on the method and setting. Some entries that bind do so weakly or less than the wild type. Tags and fused reporters may be left off the sequences shown.

Biological target: T1, GST-Set7 (UniProt Q8WTS6)
T1 sequence: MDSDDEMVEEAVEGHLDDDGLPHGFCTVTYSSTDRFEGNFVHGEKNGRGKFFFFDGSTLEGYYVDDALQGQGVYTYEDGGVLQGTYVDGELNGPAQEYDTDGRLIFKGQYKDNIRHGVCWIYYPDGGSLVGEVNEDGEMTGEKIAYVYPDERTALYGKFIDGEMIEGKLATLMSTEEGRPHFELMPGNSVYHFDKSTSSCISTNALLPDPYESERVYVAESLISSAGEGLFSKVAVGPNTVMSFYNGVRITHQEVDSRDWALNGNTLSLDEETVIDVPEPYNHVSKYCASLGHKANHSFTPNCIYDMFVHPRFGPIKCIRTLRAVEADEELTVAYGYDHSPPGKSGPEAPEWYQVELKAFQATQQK
Assay: pull-down; GST-Set7 as bait with MBP-tagged Gli3 truncated fragments (MBP-K436, MBP-K595); proteins expressed in E. coli; both purified

binding: binds
B1: MBP-K436 (amino acids from 344 to 463 of Gli3) (domain or fragment, UniProt P10071 344-463)
chain: PALSFTYSSAPVSLHMHQQILSRQQSLGSAFGHSPPLIHPAPTFPTQRPIPGIPTVLNPVQVSSGPSESSQNKPTSESAVSSTGDPMHNKRSKIKPDEDLPSPGARGQQEQPEGTTLVKE
